Results are given in words; binding and its absence hold for the method and conditions named. In cells and extracts the contact can be indirect. For some of these results: Binding calls can cover weak binding; strength is not graded here. For some of these results: Where a sequence is shown, tags or fusion partners need not be part of it.
Tests used:
[1] = molecular target: T1, Flag-ATF6 luminal domain (amino acids 400-670) (UniProt P18850); assay: co-IP; 293T cells transfected with HA-TPD52 and Flag-ATF6 or its truncation constructs; IP buffer (50 mM Tris HCl, 150 mM NaCl, 1 mM EDTA, 1% Triton X-100), antibody-conjugated agarose beads, 4 °C, 4 h; immunoblot
T1 sequence: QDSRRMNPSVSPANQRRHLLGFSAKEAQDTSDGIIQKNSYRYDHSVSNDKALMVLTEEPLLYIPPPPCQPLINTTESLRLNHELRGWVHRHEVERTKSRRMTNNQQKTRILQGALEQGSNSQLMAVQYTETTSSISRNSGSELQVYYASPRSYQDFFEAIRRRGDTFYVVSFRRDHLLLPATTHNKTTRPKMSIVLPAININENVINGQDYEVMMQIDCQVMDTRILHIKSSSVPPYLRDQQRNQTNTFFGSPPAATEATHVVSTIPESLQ

Amino acid sequences for entries named in this document (tags omitted). A change or cut given only in a name is not applied to a line headed by its entry.
UniProt Q14703: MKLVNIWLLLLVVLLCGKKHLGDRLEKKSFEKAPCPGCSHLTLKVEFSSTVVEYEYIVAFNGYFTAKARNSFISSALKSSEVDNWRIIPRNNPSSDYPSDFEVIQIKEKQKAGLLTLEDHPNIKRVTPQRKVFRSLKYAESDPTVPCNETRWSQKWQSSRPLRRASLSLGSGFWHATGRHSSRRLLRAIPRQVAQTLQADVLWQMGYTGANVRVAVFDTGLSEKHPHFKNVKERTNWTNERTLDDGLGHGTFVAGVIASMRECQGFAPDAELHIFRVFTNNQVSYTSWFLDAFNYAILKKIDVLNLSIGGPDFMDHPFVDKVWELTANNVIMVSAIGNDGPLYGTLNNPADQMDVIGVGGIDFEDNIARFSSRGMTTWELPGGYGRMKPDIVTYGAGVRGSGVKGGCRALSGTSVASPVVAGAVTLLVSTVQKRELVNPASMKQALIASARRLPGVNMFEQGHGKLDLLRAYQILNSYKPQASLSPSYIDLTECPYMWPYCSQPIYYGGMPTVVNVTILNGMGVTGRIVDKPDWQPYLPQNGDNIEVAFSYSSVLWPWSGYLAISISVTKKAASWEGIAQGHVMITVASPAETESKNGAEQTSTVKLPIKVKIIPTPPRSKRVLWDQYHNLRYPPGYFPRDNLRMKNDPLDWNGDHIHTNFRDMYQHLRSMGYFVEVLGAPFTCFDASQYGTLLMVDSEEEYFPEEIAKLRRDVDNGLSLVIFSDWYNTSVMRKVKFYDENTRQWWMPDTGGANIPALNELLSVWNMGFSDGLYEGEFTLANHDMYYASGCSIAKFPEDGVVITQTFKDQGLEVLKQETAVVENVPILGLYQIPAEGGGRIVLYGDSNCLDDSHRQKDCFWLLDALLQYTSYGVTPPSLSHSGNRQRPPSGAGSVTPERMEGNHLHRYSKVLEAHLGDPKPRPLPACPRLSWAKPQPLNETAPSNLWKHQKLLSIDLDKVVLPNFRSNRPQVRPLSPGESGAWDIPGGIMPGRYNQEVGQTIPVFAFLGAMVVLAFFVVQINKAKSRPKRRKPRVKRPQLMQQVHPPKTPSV

[2] = molecular target: T2, Flag-ATF6 transmembrane domain (amino acids 378-399) (UniProt P18850); assay: as above
T2 sequence: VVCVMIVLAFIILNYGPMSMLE

[3] = molecular target: activating transcription factor 6 (ATF6), endogenous (human (endogenous in T24, 5637 and 253J)) (UniProt P18850); assay: co-IP; endogenous proteins; anti-ATF6 IP from 253J cells (TPD52 overexpression or empty vector) and T24 cells (shTPD52 or scramble), with 1 µg/mL tunicamycin where indicated; immunoblot
[4] = molecular target: tumor protein D52 (TPD52), endogenous (human (endogenous in T24 and 5637)); assay: co-IP; endogenous proteins; anti-TPD52 IP (T24), anti-ATF6 IP (T24 and 5637), anti-Cdc20 IP (T24, 20 µM MG132 for 6 h before harvesting); immunoblot

HA-TPD52 (human)
binding [1]: binds | binding [2]: no binding

site-1 protease (S1P), endogenous (from UniProt Q14703) (enzyme)
binding [3]: binds

B1: site-2 protease (S2P), endogenous (enzyme, UniProt O43462 1-519)
chain: MIPVSLVVVVVGGWTVVYLTDLVLKSSVYFKHSYEDWLENNGLSISPFHIRWQTAVFNRAFYSWGRRKARMLYQWFNFGMVFGVIAMFSSFFLLGKTLMQTLAQMMADSPSSYSSSSSSSSSSSSSSSSSSSSSSSLHNEQVLQVVVPGINLPVNQLTYFFTAVLISGVVHEIGHGIAAIREQVRFNGFGIFLFIIYPGAFVDLFTTHLQLISPVQQLRIFCAGIWHNFVLALLGILALVLLPVILLPFYYTGVGVLITEVAEDSPAIGPRGLFVGDLVTHLQDCPVTNVQDWNECLDTIAYEPQIGYCISASTLQQLSFPVRAYKRLDGSTECCNNHSLTDVCFSYRNNFNKRLHTCLPARKAVEATQVCRTNKDCKKSSSSSFCIIPSLETHTRLIKVKHPPQIDMLYVGHPLHLHYTVSITSFIPRFNFLSIDLPVVVETFVKYLISLSGALAIVNAVPCFALDGQWILNSFLDATLTSVIGDNDVKDLIGFFILLGGSVLLAANVTLGLWMVTAR
binding [4]: binds

Reference: article PMC11615746
